{"source": "PubChem BioAssay AID1508597 – Cure First – 2020", "screen": "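Genes whose silencing sensitises or protects ovarian cancer cells against rucaparib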 (primary screen)", "cells": "human ovarian carcinoma lines grown from tumours: OCI-P5x (papillary serous) and OCI-C5x (clear cell)", "reagents": "siRNA pool against human genes, 1.25 pmol siRNA per well", "time to read-out": "72 h or 96 h, depending on the cell culture", "treatment": "rucaparib 20 µM (about IC30) or vehicle, present until read-out", "rucaparib or vehicle": "Vehicle", "cell line": "OCI-C5x (clear cell)", "detection": "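Luminescent ATP-based viability assay read 72 or 96 h after transfection, depending on culture, given as normalised percent viability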", "direction": "viability, normalised: higher = more viable cells remaining", "hit rule": "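a well counts as a hit if its normalised viability is under 80 percent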", "meaning of the calls": "active = viability under 80%; inactive = viability 80% or more", "note": "This is a random part of the about 2,100 reagents, in one setting of the screen. 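Calls flag viability under 80% in either arm, not effects specific to rucaparib; the reference for percent is not stated.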 A reagent listed more than once was tested more than once; the source does not tell the runs apart. Reagent sequences are not shown. Not stated in the record: the 100% reference."}
{"gene symbol": "DNAJC2", "technical replicate": "1", "viability, normalised (%)": 48.9, "activity call": "active"}
{"gene symbol": "DNAJC2", "technical replicate": "2", "viability, normalised (%)": 44, "activity call": "active"}
{"gene symbol": "DNAJC2", "technical replicate": "3", "viability, normalised (%)": 42.5, "activity call": "active"}
{"gene symbol": "BCR", "technical replicate": "1", "viability, normalised (%)": 72.9, "activity call": "active"}
{"gene symbol": "BCR", "technical replicate": "2", "viability, normalised (%)": 71.7, "activity call": "active"}
{"gene symbol": "BCR", "technical replicate": "3", "viability, normalised (%)": 57.5, "activity call": "active"}
{"gene symbol": "GDPD3", "technical replicate": "1", "viability, normalised (%)": 32.1, "activity call": "active"}
{"gene symbol": "GDPD3", "technical replicate": "2", "viability, normalised (%)": 47, "activity call": "active"}
{"gene symbol": "GDPD3", "technical replicate": "3", "viability, normalised (%)": 43.9, "activity call": "active"}
{"gene symbol": "CHD8", "technical replicate": "1", "viability, normalised (%)": 43, "activity call": "active"}
{"gene symbol": "CHD8", "technical replicate": "2", "viability, normalised (%)": 44.8, "activity call": "active"}
{"gene symbol": "CHD8", "technical replicate": "3", "viability, normalised (%)": 60.1, "activity call": "active"}
{"gene symbol": "IPMK", "technical replicate": "1", "viability, normalised (%)": 98.6, "activity call": "inactive"}
{"gene symbol": "IPMK", "technical replicate": "2", "viability, normalised (%)": 52.2, "activity call": "active"}
{"gene symbol": "IPMK", "technical replicate": "3", "viability, normalised (%)": 62.4, "activity call": "active"}
{"gene symbol": "MOS", "technical replicate": "1", "viability, normalised (%)": 57.3, "activity call": "active"}
{"gene symbol": "MOS", "technical replicate": "2", "viability, normalised (%)": 76.6, "activity call": "active"}
{"gene symbol": "MOS", "technical replicate": "3", "viability, normalised (%)": 65.1, "activity call": "active"}
{"gene symbol": "ASNS", "technical replicate": "1", "viability, normalised (%)": 39.4, "activity call": "active"}
{"gene symbol": "ASNS", "technical replicate": "2", "viability, normalised (%)": 54.2, "activity call": "active"}
{"gene symbol": "ASNS", "technical replicate": "3", "viability, normalised (%)": 45.8, "activity call": "active"}
{"gene symbol": "PHF10", "technical replicate": "1", "viability, normalised (%)": 59.7, "activity call": "active"}
{"gene symbol": "PHF10", "technical replicate": "2", "viability, normalised (%)": 64.2, "activity call": "active"}
{"gene symbol": "PHF10", "technical replicate": "3", "viability, normalised (%)": 68, "activity call": "active"}
{"gene symbol": "TIPARP", "technical replicate": "1", "viability, normalised (%)": 27.9, "activity call": "active"}
{"gene symbol": "TIPARP", "technical replicate": "2", "viability, normalised (%)": 30.9, "activity call": "active"}
{"gene symbol": "TIPARP", "technical replicate": "3", "viability, normalised (%)": 44.6, "activity call": "active"}
{"gene symbol": "TET1", "technical replicate": "1", "viability, normalised (%)": 46.6, "activity call": "active"}
{"gene symbol": "TET1", "technical replicate": "2", "viability, normalised (%)": 61, "activity call": "active"}
{"gene symbol": "TET1", "technical replicate": "3", "viability, normalised (%)": 68.7, "activity call": "active"}
{"gene symbol": "DBH", "technical replicate": "1", "viability, normalised (%)": 36.6, "activity call": "active"}
{"gene symbol": "DBH", "technical replicate": "2", "viability, normalised (%)": 43.8, "activity call": "active"}
{"gene symbol": "DBH", "technical replicate": "3", "viability, normalised (%)": 36.7, "activity call": "active"}
{"gene symbol": "CBX1", "technical replicate": "1", "viability, normalised (%)": 56, "activity call": "active"}
{"gene symbol": "CBX1", "technical replicate": "2", "viability, normalised (%)": 77.5, "activity call": "active"}
{"gene symbol": "CBX1", "technical replicate": "3", "viability, normalised (%)": 60.3, "activity call": "active"}
{"gene symbol": "BABAM2", "technical replicate": "1", "viability, normalised (%)": 77.6, "activity call": "active"}
{"gene symbol": "BABAM2", "technical replicate": "1", "viability, normalised (%)": 31.9, "activity call": "active"}
{"gene symbol": "BABAM2", "technical replicate": "2", "viability, normalised (%)": 74.7, "activity call": "active"}
{"gene symbol": "BABAM2", "technical replicate": "2", "viability, normalised (%)": 55.3, "activity call": "active"}
{"gene symbol": "BABAM2", "technical replicate": "3", "viability, normalised (%)": 61.7, "activity call": "active"}
{"gene symbol": "BABAM2", "technical replicate": "3", "viability, normalised (%)": 39.8, "activity call": "active"}

In a second layout: entries from further up.
gene symbol	technical replicate	viability, normalised (%)	activity call
CHD8	1	43	active
CHD8	2	44.8	active
